# Taken from: PubChem BioAssay AID602196 (INSERM, 2012)
# Aim: 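Genes whose knock-down alters cisplatin killing of lung cancer cells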
# Cells: human A549 lung cancer cells
# Knock-down reagent: siRNA pair against human genes
# Duration: 48 h transfection before cisplatin; time from cisplatin to read-out not stated
# Challenge: cisplatin at a dose killing half of control-siRNA cells; exact dose and duration not given
# Measured: 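Shift in cisplatin death relative to control siRNA, from -50 (all cells die) to +50 (no cells die); siRNAs harmful on their own scored 0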
# Reading the numbers: two-siRNA summed score (-2 to +2): higher = both siRNAs protect from cisplatin killing; -2 means both sensitise; mean protection from cisplatin (shift in death) and protection from cisplatin (shift in death), siRNA C and protection from cisplatin (shift in death), siRNA D: higher = protection from cisplatin killing
# Rule for the call: 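siRNAs harmful alone (LDH or WST-1) get 0; others get +1 for less and -1 for more cisplatin killing; genes are active when the two siRNAs give the same sign, summing to ±2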
# Calls: active = both siRNAs shift cisplatin killing the same way; inactive = no consistent shift, or siRNA harmful alone
# This is one part, drawn at random, of about 23,000 deposited reagents. 455 of all reagents (2%) were called active. 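Active includes both protection and sensitisation; some change values fall well beyond the stated -50 to +50 range.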 Unmarked entries are inactive. No sequences are given here. Not given: the amount of reagent.
gene,two-siRNA summed score (-2 to +2),mean protection from cisplatin (shift in death) (%),"protection from cisplatin (shift in death), siRNA C (%)","protection from cisplatin (shift in death), siRNA D (%)"
RELN (reelin),0,-9.4,-20.2,1.3
SLC6A11,0,2.4,8,-3.2
LOC399900,0,7.8,-13.4,29
ATP9B (ATPase phospholipid transporting 9B),-1,-2.4,-10.9,6.1
ETFDH (electron transfer flavoprotein dehydrogenase),0,9.2,10.7,7.6
GPC3 (glypican 3),0,7.9,17.8,-1.9
TRMT5 (tRNA methyltransferase 5),0,-2.2,2.7,-7.1
LOC390551,0,3.6,15.9,-8.6
LOC440708,0,7.1,-1.5,15.7
"SPTBN2 (spectrin beta, non-erythrocytic 2)",0,3.8,19.8,-12.2
ARHGEF39 (Rho guanine nucleotide exchange factor 39),0,4.5,-0.4,9.4
DDX41 (DEAD-box helicase 41),0,-19.6,11.2,-50.4
MCAM (melanoma cell adhesion molecule),0,3.5,9.9,-2.9
LOC440159,0,7,13.1,0.9
ACTR2 (actin related protein 2),0,-4.9,-1,-8.9
LOC400793,1,-2.2,-14,9.7
TDRD9 (tudor domain containing 9),0,12.1,13.9,10.3
LOC440143,0,9.8,10.1,9.4
RBM48 (RNA binding motif protein 48),0,5.8,-2.9,14.4
CEP164 (centrosomal protein 164),0,6.5,16.9,-3.8
TNFSF13B (TNF superfamily member 13b),0,-21.3,-0.3,-42.3
"NPRL3 (NPR3 like, GATOR1 complex subunit)",0,1.8,-3,6.7
DOHH (deoxyhypusine hydroxylase),1,1.8,12,-8.4
EPPIN (epididymal peptidase inhibitor),0,6.1,5.2,7
PLA1A (phospholipase A1 member A),-1,-23.5,-35.6,-11.4
LOC388963,0,6.7,11,2.4
YIPF4 (Yip1 domain family member 4),0,5,3.2,6.9
CRYBG3 (crystallin beta-gamma domain containing 3),0,5.8,8.5,3.1
RBL1 (RB transcriptional corepressor like 1),-1,-16.6,-34.6,1.5
LOC441110,0,25.8,27.9,23.6
UBALD1 (UBA like domain containing 1),0,-4.6,-3.9,-5.3
CYP4X1 (cytochrome P450 family 4 subfamily X member 1),0,0.2,1.4,-0.9
PCSK9 (proprotein convertase subtilisin/kexin type 9),0,5.6,-0.7,11.9
POLR3E (RNA polymerase III subunit E),0,12.8,9.2,16.4
PLCD3 (phospholipase C delta 3),1,21.3,26,16.6
ERMARD (ER membrane associated RNA degradation),0,13.1,17.9,8.2
PRMT8 (protein arginine methyltransferase 8),-1,-17.6,1.1,-36.3

A few values from the list:
Result for CRYBG3 (crystallin beta-gamma domain containing 3) under “protection from cisplatin (shift in death), siRNA C (%)”: 8.5
Entry of LOC440708 under “mean protection from cisplatin (shift in death) (%)”: 7.1
Entry of TRMT5 (tRNA methyltransferase 5) under “protection from cisplatin (shift in death), siRNA D (%)”: -7.1
Result for RELN (reelin) in “two-siRNA summed score (-2 to +2)”: 0

Continued.
gene,two-siRNA summed score (-2 to +2),mean protection from cisplatin (shift in death) (%),"protection from cisplatin (shift in death), siRNA C (%)","protection from cisplatin (shift in death), siRNA D (%)"
LGMN (legumain),0,-7.7,-8.4,-6.9
PDGFB (platelet derived growth factor subunit B),0,52.7,-13.9,119
PTP4A1 (protein tyrosine phosphatase 4A1),0,-5.4,-2.9,-7.9
YTHDC2 (YTH N6-methyladenosine RNA binding protein C2),0,0.4,-1.7,2.6
OR52W1 (olfactory receptor family 52 subfamily W member 1),1,5.9,-12.6,24.5
SNX10 (sorting nexin 10),0,4.3,1.5,7.1
EED (embryonic ectoderm development),0,-0.4,-7.7,6.9
PHKG1 (phosphorylase kinase catalytic subunit gamma 1),2 (active),23.9,30,17.9
PILRB (paired immunoglobin like type 2 receptor beta),-1,-19.7,-29.7,-9.7
"RAB21 (RAB21, member RAS oncogene family)",-1,-10,-32,12
C1orf50 (chromosome 1 open reading frame 50),0,6.8,7,6.5
MICALL1 (MICAL like 1),0,-2,-1.4,-2.5
VPS33A (VPS33A core subunit of CORVET and HOPS complexes),0,9.2,3,15.4
DIPK2A (divergent protein kinase domain 2A),1,16.4,18.3,14.4
MYO3A (myosin IIIA),0,3.1,6.9,-0.6
P2RY4 (pyrimidinergic receptor P2Y4),1,7,20.6,-6.7
ING3 (inhibitor of growth family member 3),0,20.3,37.5,3
CMTM3 (CKLF like MARVEL transmembrane domain containing 3),1,12.5,23.3,1.7
TAAR2 (trace amine associated receptor 2),0,0,16.7,-16.7
ZNF100 (zinc finger protein 100),0,19,28.8,9.1
